These are yes or no findings as the source states them, for the method shown. Binding seen in cells or lysates may run through a third protein. A yes stands for co-enrichment or nearness to the bait. Other partners may have been found.

The chains behind the UniProt entries cited, without tags or fusion partners.
UniProt Q9D4H8: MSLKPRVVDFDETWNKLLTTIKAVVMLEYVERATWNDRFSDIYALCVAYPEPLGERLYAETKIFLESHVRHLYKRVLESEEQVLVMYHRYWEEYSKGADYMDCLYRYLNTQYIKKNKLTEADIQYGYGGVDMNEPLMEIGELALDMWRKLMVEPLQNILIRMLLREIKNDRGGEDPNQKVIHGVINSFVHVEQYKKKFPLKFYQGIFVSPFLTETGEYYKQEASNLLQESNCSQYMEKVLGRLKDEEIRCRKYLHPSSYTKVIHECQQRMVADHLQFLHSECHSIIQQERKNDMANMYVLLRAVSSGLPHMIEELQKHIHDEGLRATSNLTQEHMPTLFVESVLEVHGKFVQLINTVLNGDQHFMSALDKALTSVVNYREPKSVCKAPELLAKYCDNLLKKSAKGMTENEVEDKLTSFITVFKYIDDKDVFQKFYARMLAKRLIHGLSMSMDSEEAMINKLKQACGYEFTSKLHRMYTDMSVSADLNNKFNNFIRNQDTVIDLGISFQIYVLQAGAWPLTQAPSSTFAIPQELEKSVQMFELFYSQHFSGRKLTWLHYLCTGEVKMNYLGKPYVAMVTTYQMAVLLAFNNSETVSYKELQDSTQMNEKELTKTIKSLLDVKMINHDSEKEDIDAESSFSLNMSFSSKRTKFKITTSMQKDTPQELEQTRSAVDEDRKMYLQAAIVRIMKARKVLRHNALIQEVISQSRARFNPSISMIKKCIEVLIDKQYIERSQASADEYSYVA

Test [1] concerns the target T1, H/F-PRAMEL7WT (ESC line) (mouse) (UniProt Q810Y8).
T1 sequence: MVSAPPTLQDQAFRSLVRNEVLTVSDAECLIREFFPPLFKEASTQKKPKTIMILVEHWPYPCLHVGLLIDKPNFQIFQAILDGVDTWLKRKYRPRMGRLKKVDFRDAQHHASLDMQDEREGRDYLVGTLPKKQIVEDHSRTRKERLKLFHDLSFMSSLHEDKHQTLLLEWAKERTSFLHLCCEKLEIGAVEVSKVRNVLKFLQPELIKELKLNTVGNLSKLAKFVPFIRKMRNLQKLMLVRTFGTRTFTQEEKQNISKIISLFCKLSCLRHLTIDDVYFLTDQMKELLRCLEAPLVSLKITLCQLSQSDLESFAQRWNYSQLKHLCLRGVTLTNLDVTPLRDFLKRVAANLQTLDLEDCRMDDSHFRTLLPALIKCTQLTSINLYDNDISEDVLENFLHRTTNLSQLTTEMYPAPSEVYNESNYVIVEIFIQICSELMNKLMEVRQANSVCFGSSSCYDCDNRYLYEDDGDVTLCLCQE
Kind of test: affinity purification with mass spectrometry; HA-IP (anti-HA magnetic beads, overnight, 4 °C) from MNase-treated extracts (150 mM NaCl) of ESC + H/F-PRAMEL7WT, ESC + H/F-PRAMEL7ΔN and parental ESCs; on-bead tryptic digestion, LC-MS/MS; two independent experiments.

In test [2] the target is Cullin2 (CUL2), endogenous in mouse ESCs (mouse (endogenous in ESCs)) (UniProt Q9D4H8). The experiment in a line: affinity purification with mass spectrometry; CUL2-chromatin-IP: DSP-crosslinked, MNase-digested chromatin of ESC + H/F-PRAMEL7WT against parental ESCs, Cullin2 antibody and Dynabeads protein A, LC-MS/MS; fold changes ≥ 3; two independent experiments.
Test [3] concerns the target T2, H/F-PRAMEL7ΔN (ESC line) (mouse) (UniProt Q810Y8).
T2 sequence: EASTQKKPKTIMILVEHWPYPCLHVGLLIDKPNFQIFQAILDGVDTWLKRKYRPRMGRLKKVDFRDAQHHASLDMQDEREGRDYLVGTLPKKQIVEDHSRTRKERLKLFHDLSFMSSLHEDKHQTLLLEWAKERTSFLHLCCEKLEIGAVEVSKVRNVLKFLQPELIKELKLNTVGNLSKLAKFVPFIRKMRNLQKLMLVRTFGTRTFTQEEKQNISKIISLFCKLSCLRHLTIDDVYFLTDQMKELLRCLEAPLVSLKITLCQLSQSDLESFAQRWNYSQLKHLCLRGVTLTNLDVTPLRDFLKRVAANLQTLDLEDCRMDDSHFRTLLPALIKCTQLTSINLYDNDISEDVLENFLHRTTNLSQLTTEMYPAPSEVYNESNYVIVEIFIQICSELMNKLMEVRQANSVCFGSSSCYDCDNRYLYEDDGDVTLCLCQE
Kind of test: affinity purification with mass spectrometry; HA-IP (anti-HA magnetic beads, overnight, 4 °C) from MNase-treated extracts (150 mM NaCl) of ESC + H/F-PRAMEL7WT, ESC + H/F-PRAMEL7ΔN and parental ESCs; on-bead tryptic digestion, LC-MS/MS; two independent experiments.

As to “Cullin2 (CUL2), endogenous in mouse ESCs (from UniProt Q9D4H8 1-745)”, the binding entry in test [1] is on record as “binds”.

B1: SND1 (protein, UniProt Q78PY7 1-910)
chain: MASSAQSSGSSGGPAVPTVQRGIVKMVLSGCAIIVRGQPRGGPPPERQINLSNIRAGNLARRAAATQPDGKDTPDEPWAFPAREFLRKKLIGKEVCFTIENKTPQGREYGMIYLGKDTNGENIAESLVAEGLATRREGMRANNPEQNRLSECEEQAKASKKGMWSEGNGSHTIRDLKYTIENPRHFVDSHHQKPVNAIIEHVRDGSVVRALLLPGHHLVTVMLSGIKCPTFRRETDGSETPEPFAAEAKFFTESRLLQRDVQIILESCHNQNLLGTILHPNGNITELLLKEGFARCVDWSIAVYTRGAEKLRAAERFAKERRLRIWRDYVPPTANLDQKDKQFVAKVMQVLNADAIVVKLNSGDYKTIHLSSIRPPRLEGDNIQDKNKKLRPLYDIPYMFEAREFLRKKLIGKKVNVTVDYIRPASPATETVPAFSERTCATVTIGGINIAEALVSKGLATVIRYRQDDDQRSSHYDELLAAEARAIKNGKGLHSKKEVPIHRVADISGDTQKAKQFLPFLQRAGRSEAVVEYVFSGSRLKLYLPKETCLITFLLAGIECPRGARNLPGLVQEGEPFSEEATLFTKELVLQREVEVEVESMDKAGNFIGWLHMDGANLSVLLVEQALSKVHFTAERSAYYKPLLSAEEAAKQRKEKVWAHYEERPVEEVMPVLEEKERSASYKPVFVTEITDDLHFYVQDVETGTQLEKLMENMRNDISSHPPVEGSYAPRRGEFCIAKFVDGEWYRARVEKVESPAKVHVFYIDYGNREILPSTRLGTLPPAFSTRVLPAQATEYAFAFIQVPQDEDARTDAVDSVVRDIQNTQCLLNVEHLSASCPHVTLQFADSKGDVGLGLVKEGLVMVEVRKEKQFQKVITEYLNAQESAKSARLNLWRYGDFRADDADEFGYSR
For the molecule B1, the binding result in test [2] and in test [3] was “binds” each time.

B2: UHRF1 (protein, UniProt Q8VDF2 1-782)
chain: MWIQVRTMDGKETHTVNSLSRLTKVQELRKKIEEVFHVEPQLQRLFYRGKQMEDGHTLFDYDVRLNDTIQLLVRQSLALPLSTKERDSELSDSDSGYGVGHSESDKSSTHGEGAAEADDKTVWEDTDLGLYKVNEYVDVRDNIFGAWFEAQVVQVQKRALSEDEPCSSSAVKTSEDDIMYHVKYDDYPEHGVDIVKAKNVRARARTVIPWENLEVGQVVMANYNVDYPRKRGFWYDVEICRKRQTRTARELYGNIRLLNDSQLNNCRIMFVDEVLMIELPKERRPLIASPSQPPPALRNTGKSGPSCRFCKDDENKPCRKCACHVCGGREAPEKQLLCDECDMAFHLYCLKPPLTSVPPEPEWYCPSCRTDSSEVVQAGEKLKESKKKAKMASATSSSRRDWGKGMACVGRTTECTIVPANHFGPIPGVPVGTMWRFRVQVSESGVHRPHVAGIHGRSNDGAYSLVLAGGYEDDVDNGNYFTYTGSGGRDLSGNKRTAGQSSDQKLTNNNRALALNCHSPINEKGAEAEDWRQGKPVRVVRNMKGGKHSKYAPAEGNRYDGIYKVVKYWPERGKSGFLVWRYLLRRDDTEPEPWTREGKDRTRQLGLTMQYPEGYLEALANKEKSRKRPAKALEQGPSSSKTGKSKQKSTGPTLSSPRASKKSKLEPYTLSEQQANLIKEDKGNAKLWDDVLTSLQDGPYQIFLSKVKEAFQCICCQELVFRPVTTVCQHNVCKDCLDRSFRAQVFSCPACRFELDHSSPTRVNQPLQTILNQLFPGYGSGR
On to B2, for which the binding entry in test [2] and in test [3] was “binds” throughout.

The record behind these values is paper PMC10933316.
